Experimental data as given in patent US20120214173A1, “Methods of Identifying Modulators of an Ehd Polypeptide” (priority 2007, published 2012).
Results are given in words; binding and its absence hold for the method and conditions named. Some entries that bind do so weakly or less than the wild type.

Target: T1, isolated EH-domain of EHD2 (mouse, UniProt Q8BH64 443-543, limits assumed)
T1 construct: domain: EH-domain; ITC buffer contained 200 µM CaCl2
T1 sequence (looked up): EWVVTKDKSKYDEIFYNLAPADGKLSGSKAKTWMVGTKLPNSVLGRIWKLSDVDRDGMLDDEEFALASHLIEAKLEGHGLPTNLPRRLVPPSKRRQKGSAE
Assay: ITC

binding: binds
Binder: KLNPFGNT (also called side site NPF peptide) [peptide 124-KLNPFGNT from EHD2]
